PubChem BioAssay AID1671195 – Yale University – 2021
Test: 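Regulators of LDL receptor activity judged by labelled LDL uptake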 (primary screen). Cell system: human Huh7 hepatoma cells. Reagent: siRNA pool against human genes, 18 nM. Timing: about 2 to 2.5 days of knockdown, then 8 h LDL uptake. Challenge: DiI-labelled LDL at 30 µg/ml for 8 h, in lipoprotein-deficient serum medium. Measurement: 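Per-cell DiI-LDL intensity by automated imaging; well means scaled to the plate median and given as a robust z-score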. Reading the numbers: robust z-score: higher = more LDL uptake after knockdown. Call rule: 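Active when two or more replicates show a robust z-score above 2 or below -2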.
In all, the deposit lists about 22,000 reagents; below is a random part of them. About 1,510 of them (6.9%) were called active. 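Active includes knockdowns raising or lowering LDL uptake; positive z-scores mean more uptake, negative mean less.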 No sequences are given here.

gene symbol,"robust z-score, replicate 1","robust z-score, replicate 2","robust z-score, replicate 3",Outcome
IZUMO4 (IZUMO family member 4),-1.42,-0.417,-0.71,inactive
HCG9 (HLA complex group 9),-1.24,-0.458,1.67,inactive
TMEM11 (transmembrane protein 11),-0.13,0.124,-0.286,inactive
PLEKHB1 (pleckstrin homology domain containing B1),0.46,0.162,1.46,inactive
LURAP1 (leucine rich adaptor protein 1),-1.48,-1.3,-1.41,inactive
SGCA (sarcoglycan alpha),-0.409,0.824,-0.995,inactive
PLEKHA3 (pleckstrin homology domain containing A3),0.0832,0.491,-0.0322,inactive
OR2Z1 (olfactory receptor family 2 subfamily Z member 1),-1.28,-1.23,-1.59,inactive
VPS25 (vacuolar protein sorting 25 homolog),-2.29,-2.04,-2.22,active
RARG (retinoic acid receptor gamma),0.0326,-0.614,-0.878,inactive
LASP1 (LIM and SH3 protein 1),0.0822,-0.481,-0.25,inactive
PBX3 (PBX homeobox 3),0.783,0.842,1.26,inactive
USP50 (ubiquitin specific peptidase 50),-0.162,0.2,-0.115,inactive
MIR29B2CHG (MIR29B2 and MIR29C host gene),0.496,0.7,0.75,inactive
NXT2 (nuclear transport factor 2 like export factor 2),-0.804,0.357,-1.33,inactive
LOC441513 (retired record),0.903,0.151,0.274,inactive
DPYSL4 (dihydropyrimidinase like 4),-0.754,-1.23,-1.21,inactive
LOC440545 (retired record),-0.78,-0.365,-0.801,inactive
TFDP1P2 (TFDP1 pseudogene 2),-1.45,-1.38,-1.36,inactive
SLC24A1,1.45,0.31,1.01,inactive
ZNF79 (zinc finger protein 79),0.177,-0.0756,-0.0297,inactive
HSPA13 (heat shock protein family A (Hsp70) member 13),1.94,2.21,1.92,active
PTPRB (protein tyrosine phosphatase receptor type B),-0.0232,0.0347,-0.659,inactive
TESK2 (testis associated actin remodelling kinase 2),-0.789,-1.17,-1.02,inactive
HMGN4 (high mobility group nucleosomal binding domain 4),-0.955,-0.301,-0.308,inactive

The list goes on; the last 9 above are carried over.
gene symbol,"robust z-score, replicate 1","robust z-score, replicate 2","robust z-score, replicate 3",Outcome
DPYSL4 (dihydropyrimidinase like 4),-0.754,-1.23,-1.21,inactive
LOC440545 (retired record),-0.78,-0.365,-0.801,inactive
TFDP1P2 (TFDP1 pseudogene 2),-1.45,-1.38,-1.36,inactive
SLC24A1,1.45,0.31,1.01,inactive
ZNF79 (zinc finger protein 79),0.177,-0.0756,-0.0297,inactive
HSPA13 (heat shock protein family A (Hsp70) member 13),1.94,2.21,1.92,active
PTPRB (protein tyrosine phosphatase receptor type B),-0.0232,0.0347,-0.659,inactive
TESK2 (testis associated actin remodelling kinase 2),-0.789,-1.17,-1.02,inactive
HMGN4 (high mobility group nucleosomal binding domain 4),-0.955,-0.301,-0.308,inactive
CDH16 (cadherin 16),0.345,-0.371,-0.0299,inactive
LRP12 (LDL receptor related protein 12),1.02,0.482,0.794,inactive
FYRD1 (FYRN and FYRC domains INO80 complex interactor 1),1.01,-0.381,0.131,inactive
"NRDE2 (NRDE-2, necessary for RNA interference, domain containing)",-0.00922,-1.02,1.94,inactive
C20orf96 (chromosome 20 open reading frame 96),-0.71,-1.49,-0.0504,inactive
IRF6 (interferon regulatory factor 6),0.3,0.345,0.464,inactive
ZNF174 (zinc finger protein 174),2.53,2.47,2.63,active
ZRANB3 (zinc finger RANBP2-type containing 3),0.789,0.83,0.978,inactive
ANAPC13 (anaphase promoting complex subunit 13),-0.641,0.407,-0.969,inactive
CYB5A (cytochrome b5 type A),-1.35,-1.1,-1.44,inactive
WDR73 (WD repeat domain 73),1.04,0.309,0.515,inactive
ALLC (allantoicase),0.286,-0.00144,0.391,inactive
LOC401216 (retired record),1.13,0.745,1.39,inactive
RSL1D1 (ribosomal L1 domain containing 1),-0.656,0.161,0.661,inactive
YIPF2 (Yip1 domain family member 2),0.126,-0.825,-0.433,inactive
MYL6B (myosin light chain 6B),0.708,0.42,0.995,inactive
RIMS4 (regulating synaptic membrane exocytosis 4),0.0548,-0.528,-0.493,inactive
SIM2 (SIM bHLH transcription factor 2),0.97,1.2,-0.232,inactive
LOC389442 (retired record),0.122,-0.123,-0.186,inactive
RASSF2 (Ras association domain family member 2),0.376,0.0804,0.486,inactive
EDAR (ectodysplasin A receptor),0.942,2.22,0.39,inactive
"ANKRD19P (ankyrin repeat domain 19, pseudogene)",0.157,0.0244,0.634,inactive
HIF3A (hypoxia inducible factor 3 subunit alpha),1.17,0.785,-0.369,inactive
OR5W2 (olfactory receptor family 5 subfamily W member 2),1.36,1.32,1.2,inactive
ECM2 (extracellular matrix protein 2),-0.555,-1.88,-0.839,inactive
DTYMK (deoxythymidylate kinase),-0.477,-0.428,-0.623,inactive
TTBK2 (tau tubulin kinase 2),-1.19,-1.68,-1.89,inactive
KLHL22 (kelch like family member 22),0.375,-0.457,0.667,inactive
UBE2U (ubiquitin conjugating enzyme E2 U),0.161,-1.83,-0.603,inactive
"SPG21 (SPG21 abhydrolase domain containing, maspardin)",0.134,-0.34,0.694,inactive
LOC440971 (retired record),2.15,1.86,1.97,inactive
DCLRE1B (DNA cross-link repair 1B),-1.19,-0.934,-1.01,inactive
HSPB8 (heat shock protein family B (small) member 8),-1.32,-1.26,-1.42,inactive
RTN4RL1 (reticulon 4 receptor like 1),1.65,0.53,0.337,inactive
PMM2 (phosphomannomutase 2),-0.603,-0.764,-0.243,inactive
"MYC (MYC proto-oncogene, bHLH transcription factor)",0.327,0.41,-0.323,inactive
FCGR2B (Fc gamma receptor IIb),-1.63,-1.3,-1.35,inactive
LOC442144 (retired record),0.633,0.597,1.18,inactive
STIP1 (stress induced phosphoprotein 1),-0.345,0.98,-1.3,inactive
ZNF189 (zinc finger protein 189),-1.84,-1.46,-2.02,inactive
"LONP1 (lon peptidase 1, mitochondrial)",0.985,2.02,1.7,inactive
NFE2L3 (NFE2 like bZIP transcription factor 3),0.357,-0.076,0.165,inactive
ATXN2 (ataxin 2),-0.816,0.122,0.334,inactive
